Results on one molecule are retold here after article PMC9526732.

Sequences of proteins named here, by UniProt entry; tags and fusion partners are left off.
UniProt Q63046: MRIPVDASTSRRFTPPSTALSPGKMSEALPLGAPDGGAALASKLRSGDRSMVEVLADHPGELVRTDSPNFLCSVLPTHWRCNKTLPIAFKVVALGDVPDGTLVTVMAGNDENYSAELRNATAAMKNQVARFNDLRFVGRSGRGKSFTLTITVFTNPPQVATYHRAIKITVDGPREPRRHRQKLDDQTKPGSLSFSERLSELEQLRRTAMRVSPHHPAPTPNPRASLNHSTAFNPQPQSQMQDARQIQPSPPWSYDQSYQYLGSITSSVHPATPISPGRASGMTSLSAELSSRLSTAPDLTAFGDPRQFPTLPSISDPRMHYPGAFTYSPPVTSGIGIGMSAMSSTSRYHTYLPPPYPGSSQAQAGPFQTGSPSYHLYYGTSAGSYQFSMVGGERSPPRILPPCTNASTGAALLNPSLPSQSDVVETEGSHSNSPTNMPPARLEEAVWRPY

In this experiment the target is runt related transcription factor 1 (RUNX1) (rat (endogenous in neural stem cells)) (UniProt Q63046). In words: co-IP; lysate of normal rat NSCs in RIPA buffer with protease inhibitor; incubated with anti-RUNX1 antibody or IgG and Protein A/G PLUS-agarose beads for 12 h at 4 °C; precipitate analysed by immunoblotting.

Results are given in words; binding and its absence hold for the method and conditions named. Binding seen in cells or lysates may run through a third protein. Some results given as binding are weak or reduced against the parent protein; the word gives no strength.

B1: β-catenin (protein, UniProt Q9WU82 1-781)
chain: MATQADLMELDMAMEPDRKAAVSHWQQQSYLDSGIHSGATTTAPSLSGKGNPEEEDVDTSQVLYEWEQGFSQSFTQEQVADIDGQYAMTRAQRVRAAMFPETLDEGMQIPSTQFDAAHPTNVQRLAEPSQMLKHAVVNLINYQDDAELATRAIPELTKLLNDEDQVVVNKAAVMVHQLSKKEASRHAIMRSPQMVSAIVRTMQNTNDVETARCTAGTLHNLSHHREGLLAIFKSGGIPALVKMLGSPVDSVLFYAITTLHNLLLHQEGAKMAVRLAGGLQKMVALLNKTNVKFLAITTDCLQILAYGNQESKLIILASGGPQALVNIMRTYTYEKLLWTTSRVLKVLSVCSSNKPAIVEAGGMQALGPHLTDPSQRLVQNCLWTLRNLSDAATKQEGMEGLLGTLVQLLGSDDINVVTCAAGILSNLTCNNYKNKMMVCQVGGIEALVRTVLRAGDREDITEPAICALRHLTSRHQEAEMAQNAVRLHYGLPVVVKLLHPPSHWPLIKATVGLIRNLALCPANHAPLREQGAIPRLVQLLVRAHQDTQRRTSMGGTQQQFVEGVRMEEIVEGCTGALHILARDVHNRIVIRGLNTIPLFVQLLYSPIENIQRVAAGVLCELAQDKEAAEAIEAEGATAPLTELLHSRNEGVATYAAAVLFRMSEDKPQDYKKRLSVELTSSLFRTEPMAWNETADLGLDIGAQGEALGYRQDDPSYRSFHSGGYGQDALGMDPMMEHEMGGHHPGADYPVDGLPDLGHAQDLMDGLPPGDSNQLAWFDTDL
B1: the binding entry was “binds”.
